Measured values reported in paper PMC7423155.
These are yes or no findings as the source states them, for the method shown. Binding seen in cells or lysates may run through a third protein. Some results given as binding are weak or reduced against the parent protein; the word gives no strength.

Amino acid sequences for entries named in this document (tags omitted). Residues count along the entry.
UniProt Q96I51, residues 38-464: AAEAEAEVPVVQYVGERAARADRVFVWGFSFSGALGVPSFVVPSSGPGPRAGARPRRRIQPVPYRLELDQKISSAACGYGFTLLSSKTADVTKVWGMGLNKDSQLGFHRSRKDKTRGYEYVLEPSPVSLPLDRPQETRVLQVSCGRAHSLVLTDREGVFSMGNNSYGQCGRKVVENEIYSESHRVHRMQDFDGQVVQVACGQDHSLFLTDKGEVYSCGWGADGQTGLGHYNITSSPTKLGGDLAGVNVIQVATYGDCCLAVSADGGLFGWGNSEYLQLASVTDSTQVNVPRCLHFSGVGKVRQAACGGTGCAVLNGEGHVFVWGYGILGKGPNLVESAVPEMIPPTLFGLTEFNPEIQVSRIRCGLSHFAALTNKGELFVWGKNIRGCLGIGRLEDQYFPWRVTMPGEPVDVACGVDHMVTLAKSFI
UniProt A4D1E9: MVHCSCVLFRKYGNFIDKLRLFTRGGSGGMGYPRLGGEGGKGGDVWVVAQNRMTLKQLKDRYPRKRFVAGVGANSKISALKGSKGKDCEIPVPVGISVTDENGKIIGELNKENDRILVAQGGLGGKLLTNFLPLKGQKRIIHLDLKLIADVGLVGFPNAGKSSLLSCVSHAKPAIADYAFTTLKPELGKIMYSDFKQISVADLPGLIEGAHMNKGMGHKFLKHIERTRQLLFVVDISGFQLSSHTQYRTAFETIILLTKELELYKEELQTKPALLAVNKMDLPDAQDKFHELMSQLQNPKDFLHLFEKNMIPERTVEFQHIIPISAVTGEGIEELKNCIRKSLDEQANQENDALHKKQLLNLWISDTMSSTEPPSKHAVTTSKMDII

Target: STREP2-FLAG-tagged RCC1L^V1 (human) (UniProt Q96I51)
Assay: co-IP; STREP2-FLAG-tagged RCC1L isoform as bait, captured on Strep-Tactin Sepharose overnight from trypsin-treated, sucrose gradient-purified HEK mitochondria lysed with 0.8% DDM; 10 washes; elution with 10 mM desthiobiotin; endogenous proteins in the elution found by immunoblot

Substance: GTPBP10 (from UniProt A4D1E9 1-387) (enzyme)
- binding: binds
